The results in this text go back to publication PMC10371797.

Amino acid sequences for entries named in this document (tags omitted).
UniProt O00505: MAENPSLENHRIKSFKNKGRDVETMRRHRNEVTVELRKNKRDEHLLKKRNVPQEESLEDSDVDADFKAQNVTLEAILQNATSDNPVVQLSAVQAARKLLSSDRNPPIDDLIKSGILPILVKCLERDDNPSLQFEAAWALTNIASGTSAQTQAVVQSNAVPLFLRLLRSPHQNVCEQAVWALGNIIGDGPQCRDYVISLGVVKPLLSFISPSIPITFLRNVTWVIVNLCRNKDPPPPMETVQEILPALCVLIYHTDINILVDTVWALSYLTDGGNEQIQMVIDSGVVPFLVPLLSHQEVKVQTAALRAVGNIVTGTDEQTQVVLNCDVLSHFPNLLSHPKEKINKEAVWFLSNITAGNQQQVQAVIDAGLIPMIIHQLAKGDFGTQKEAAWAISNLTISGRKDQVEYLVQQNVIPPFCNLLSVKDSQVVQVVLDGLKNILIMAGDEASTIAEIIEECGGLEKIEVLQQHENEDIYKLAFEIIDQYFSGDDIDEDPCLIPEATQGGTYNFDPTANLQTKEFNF

What all share (experiment): co-IP
One assay addresses T1, PABPN1-Flag (UniProt Q86U42).
T1 sequence: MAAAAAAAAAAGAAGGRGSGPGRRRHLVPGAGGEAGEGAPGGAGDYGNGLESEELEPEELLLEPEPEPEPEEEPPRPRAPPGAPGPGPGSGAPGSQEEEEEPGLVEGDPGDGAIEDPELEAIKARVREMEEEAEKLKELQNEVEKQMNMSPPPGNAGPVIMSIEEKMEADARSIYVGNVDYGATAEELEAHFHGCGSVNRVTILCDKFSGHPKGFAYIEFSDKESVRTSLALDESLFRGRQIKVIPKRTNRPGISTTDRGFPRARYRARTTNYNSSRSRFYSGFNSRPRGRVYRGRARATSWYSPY

The target in assay [1] is T2, ZC3H11A(KR5>A/Δ661–699)-Flag (human) (UniProt O75152).
T2 sequence: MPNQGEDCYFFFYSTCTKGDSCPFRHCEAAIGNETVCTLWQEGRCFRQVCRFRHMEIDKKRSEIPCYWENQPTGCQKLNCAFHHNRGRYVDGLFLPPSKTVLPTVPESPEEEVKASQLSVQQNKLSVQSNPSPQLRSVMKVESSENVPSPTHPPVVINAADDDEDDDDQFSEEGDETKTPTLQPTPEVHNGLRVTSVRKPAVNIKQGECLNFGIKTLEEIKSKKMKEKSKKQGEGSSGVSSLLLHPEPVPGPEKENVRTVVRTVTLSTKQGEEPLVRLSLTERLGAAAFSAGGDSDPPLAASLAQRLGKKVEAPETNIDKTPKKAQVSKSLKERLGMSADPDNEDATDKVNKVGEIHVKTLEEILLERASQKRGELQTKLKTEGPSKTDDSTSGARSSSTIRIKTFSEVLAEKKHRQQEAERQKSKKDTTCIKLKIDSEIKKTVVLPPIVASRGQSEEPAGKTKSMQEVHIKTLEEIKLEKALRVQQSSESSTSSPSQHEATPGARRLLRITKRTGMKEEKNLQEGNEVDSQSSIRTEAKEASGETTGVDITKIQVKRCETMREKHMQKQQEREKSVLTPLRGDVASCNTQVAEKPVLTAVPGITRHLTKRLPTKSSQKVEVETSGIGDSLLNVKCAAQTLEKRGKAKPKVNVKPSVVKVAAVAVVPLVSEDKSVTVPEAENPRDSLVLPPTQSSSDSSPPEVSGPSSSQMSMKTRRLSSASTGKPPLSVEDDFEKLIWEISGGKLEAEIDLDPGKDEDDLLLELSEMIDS

The next assay addresses ZC3H11A(wt)-Flag (human) (UniProt O75152).

No constants are given. Whether binding was seen depends on the method and setting. In cells and extracts the contact can be indirect. Some results given as binding are weak or reduced against the parent protein; the word gives no strength. For part of these data: Sequences can lack the tags named with a protein.

In the case of “ZC3H11A(wt)-HA (from UniProt O75152 1-810)”, in the assay with PABPN1-Flag, the binding result is “binds”.

As to “karyopherin subunit alpha 3 (KPNA3), endogenous, HeLa cells (from UniProt O00505 1-521)”, the binding result in assay [1] is “no binding”; with ZC3H11A(wt)-Flag (human) it was “binds”.
